Test results: US8466176B2 (priority 2008, dated 2013)
Some of these results come from one statement about several compounds together.

What was measured:
[1] = test system: Phytophthora infestans; type: in vivo; conditions: 500 ppm of active ingredient; tomato, preventive spray, evaluated 7 days after inoculation; 0% = control, 100% = no disease
[2] = test system: Plasmopara viticola; experiment: Plasmopara Test (Grapevines)/Protective; type: in vivo; conditions: 100 ppm of active ingredient, protective spray, evaluated 6 days after inoculation, 0% = control, 100% = no disease

| Structure (SMILES) | efficacy [1] [%] | efficacy [2] [%] |
| --- | --- | --- |
| COc1ccc(CON=C(c2ccccc2)c2nnnn2C)nc1C#CCC1CCCC1 [Example 128] | ≥ 70 | ≥ 70 |
| Cn1nnnc1C(=NOCc1cccc(NCC2CC2)n1)c1ccccc1 [Example 144] | ≥ 70 | ≥ 70 |
| CCCCC#Cc1nc(CON=C(c2ccccc2)c2nnnn2C)cs1 [Example 72] | ≥ 70 | ≥ 70 |
| Cn1nnnc1C(=NOCc1cccc(C#CC2CCCCC2)n1)c1ccccc1 [Example 30] | ≥ 70 | ≥ 70 |
| Cc1nnnn1C(=NOCc1csc(C#CCCCc2ccccc2)n1)c1ccccc1 [Example 166] | ≥ 70 | – |
| Cn1nnnc1C(=NOCc1nc(C#CCCCCl)sc1Cl)c1ccccc1 [Example 121] | ≥ 70 | ≥ 70 |
| Cn1nnnc1C(=NOCc1cccc(N(CC2CC2)C(=O)OC(C)(C)C)n1)c1ccccc1 [Example 142] | ≥ 70 | – |
| CCCCC#Cc1cccc(CON=C(c2ccccc2)c2nnnn2C)n1 [Example 23, N-{[6-(hex-1-yn-1-yl)pyridin-2-yl]methoxy}-1-(1-methyl-1H-tetrazol-5-yl)-1-phenylmethanimine] | – | ≥ 70 |
| CN(CCc1ccccc1)c1nc(CON=C(c2ccccc2)c2nnnn2C)cs1 [Example 37] | ≥ 70 | – |
| CCCCCC/C=C/c1cccc(CON=C(c2ccccc2)c2nnnn2C)n1 [Example 92] | ≥ 70 | ≥ 70 |
| Cn1nnnc1C(=NOCc1cccc(C#CC2CC2)n1)c1ccccc1 [Example 109] | ≥ 70 | ≥ 70 |
| Cn1nnnc1C(=NOCc1csc(C#C[Si](C)(C)C)n1)c1ccccc1 [Example 138] | ≥ 70 | – |
| COc1ccc(CON=C(c2ccccc2)c2nnnn2C)nc1C#CCCCC#N [Example 135] | ≥ 70 | – |
| Cn1nnnc1C(=NOCc1nc(C#CC2CCCC2)sc1Cl)c1ccccc1 [Example 116] | ≥ 70 | ≥ 70 |
| Cn1nnnc1C(=NOCc1cccc(C#CC(C)(C)C)n1)c1ccccc1 [Example 22] | ≥ 70 | ≥ 70 |
| Cn1nnnc1C(=NOCc1nc(C#CCC2CCCC2)ccc1F)c1ccccc1 [Example 98] | ≥ 70 | ≥ 70 |
| COc1ccc(CON=C(c2ccccc2)c2nnnn2C)nc1C#CC1CC1 [Example 126, N-{[6-(cyclopropylethynyl)-5-methoxypyridin-2-yl]methoxy}-1-(1-methyl-1H-tetrazol-5-yl)-1-phenylmethanimine] | – | ≥ 70 |

| Structure (SMILES) | efficacy [1] [%] | efficacy [2] [%] |
| --- | --- | --- |
| Cn1nnnc1C(=NOCc1csc(/C=C/C2CCCCC2)n1)c1ccccc1 [Example 89] | ≥ 70 | ≥ 70 |
| Cn1nnnc1C(=NOCc1csc(C#CCCCc2ccccc2)n1)c1ccccc1 [Example 62] | ≥ 70 | ≥ 70 |
| Cn1nnnc1C(=NOCc1cccc(C#Cc2ccccc2)n1)c1ccccc1 [Example 25] | ≥ 70 | ≥ 70 |
| CCCCC#Cc1nc(CON=C(c2ccccc2)c2nnnn2C)c(Cl)s1 [Example 117] | ≥ 70 | ≥ 70 |
| Cn1nnnc1C(=NOCc1nc(C#CC2CC2)sc1Cl)c1ccccc1 [Example 114, N-{[5-chloro-2-(cyclopropylethynyl)-1,3-thiazol-4-yl]methoxy}-1-(1-methyl-1H-tetrazol-5-yl)-1-phenylmethanimine] | – | ≥ 70 |
| Cn1nnnc1C(=NOCc1cccc(NCCC2CCCCC2)n1)c1ccccc1 [Example 80, N-(2-cyclohexylethyl)-6-[({[(1-methyl-1H-tetrazol-5-yl)(phenyl)methylene]amino}oxy)methyl]pyridin-2-amine] | – | ≥ 70 |
| Cc1nnnn1C(=NOCc1cccc(N=CNC#N)n1)c1ccccc1 [Example 1] | ≥ 70 | – |
| COc1ccc(CON=C(c2ccccc2)c2nnnn2C)nc1C#CCOc1ccccc1 [Example 131] | ≥ 70 | ≥ 70 |
| COc1ccc(CON=C(c2ccccc2)c2nnnn2C)nc1C#CC1CCCCC1 [Example 132] | ≥ 70 | ≥ 70 |
| COCC#Cc1nc(CON=C(c2ccccc2)c2nnnn2C)cs1 [Example 71] | ≥ 70 | ≥ 70 |
| Cn1nnnc1C(=NOCc1nc(C#CCCCC#N)ccc1F)c1ccccc1 [Example 103] | ≥ 70 | – |
| Cn1nnnc1C(=NOCc1nc(C#CCCC2CCCCC2)ccc1F)c1ccccc1 [Example 107] | ≥ 70 | ≥ 70 |
| CCCCCCN(C)c1nc(CON=C(c2ccccc2)c2nnnn2C)cs1 [Example 50] | ≥ 70 | – |
| CC(C)[Si](C#Cc1cccc(CON=C(c2ccccc2)c2nnnn2C)n1)(C(C)C)C(C)C [Example 28] | ≥ 70 | – |
| Cn1nnnc1C(=NOCc1csc(C#CC2CC2)n1)c1ccccc1 [Example 70, N-{[2-(cyclopropylethynyl)-1,3-thiazol-4-yl]methoxy}-1-(1-methyl-1H-tetrazol-5-yl)-1-phenylmethanimine] | – | ≥ 70 |
| Cn1nnnc1C(=NOCc1cccc(/C=C/Cc2ccccc2)n1)c1ccccc1 [Example 94] | ≥ 70 | – |
